{"sequences": {"note": "Sequences of proteins named here, by UniProt entry; tags and fusion partners are left off.", "UniProt P03372, whole entry, looked up": "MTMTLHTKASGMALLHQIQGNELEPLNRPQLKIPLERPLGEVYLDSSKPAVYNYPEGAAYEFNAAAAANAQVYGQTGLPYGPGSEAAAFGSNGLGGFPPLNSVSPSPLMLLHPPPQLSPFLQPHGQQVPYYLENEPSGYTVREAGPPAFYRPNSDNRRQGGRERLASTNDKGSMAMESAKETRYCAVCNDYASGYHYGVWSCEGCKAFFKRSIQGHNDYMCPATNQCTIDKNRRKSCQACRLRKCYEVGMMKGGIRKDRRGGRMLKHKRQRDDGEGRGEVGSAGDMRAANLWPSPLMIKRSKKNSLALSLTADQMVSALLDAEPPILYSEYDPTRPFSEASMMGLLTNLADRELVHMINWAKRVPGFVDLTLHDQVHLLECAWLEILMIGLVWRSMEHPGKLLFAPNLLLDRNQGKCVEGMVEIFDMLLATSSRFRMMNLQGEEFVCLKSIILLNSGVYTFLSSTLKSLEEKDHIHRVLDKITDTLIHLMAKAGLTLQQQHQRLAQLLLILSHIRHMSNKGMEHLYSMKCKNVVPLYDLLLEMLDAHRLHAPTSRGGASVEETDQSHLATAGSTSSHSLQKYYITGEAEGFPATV"}, "source": "PubChem BioAssay (EPA / NIEHS)", "note": "This list was built around the results that the source calls inconclusive (neither active nor inactive); the mix of calls is not that of the screen. Potencies of inconclusive entries are doubtful fits and often do not repeat. Activity calls are given as the source filed them. How the source made its calls: active means hit-call score of the fitted dose curve at least 0.9, where 1 is the maximum; inconclusive means response in the unintended direction; inactive means score below 0.9.", "data": [{"molecular_target": "Estrogen receptor (Homo sapiens) (UniProt P03372)", "experiment": "NVS_NR_hER: NovaScreen (NVS) Nuclear Receptor Binding Assay for human Estrogen Receptor (ER) (AID 2283348)", "method": "NVS_NR_hER is a biochemical, single-readout assay that uses extracted gene-proteins from MCF7 in a cell-free assay. Measurements were taken 18 hours after chemical dosing in a 96-well plate.NVS_NR_hER is one of one assay component(s) measured or calculated from the NVS_NR_hER assay. It is designed to make measurements of radioligand binding, a form of binding reporter, as detected with scintillation counting signals by Lysate-based radiodetection technology.Data from the assay component NVS_NR_hER was analyzed into 1 assay endpoint. This assay endpoint, NVS_NR_hER, was analyzed in the positive analysis fitting direction relative to DMSO as the negative control and baseline of activity. Using a type of binding reporter, loss-of-signal activity can be used to understand changes in the binding as they relate to the gene ESR1. Furthermore, this assay endpoint can be referred to as a primary readout, because the performed assay has only produced 1 assay endpoint. To generalize the intended target to other relatable targets, this assay endpoint is annotated to the nuclear receptor intended target family, where the subfamily is steroidal.\nBinding assays used specific radioligands (tritiated, iodinated) with non-radioactive competitive displacement ligands in agonist or antagonist protocols (as indicated) and various reference compounds and inhibitors to titrate specific binding to receptors and transporters. Most enzyme assays (CYPs, kinases, phosphatases, proteases, HDACs) used recombinant protein and specific substrates (fluorescence mostly, some colorimetric and radioactive) and inhibitors, followed by a biochemical separation of substrate and product. All assays for the biochemical HTS were initially run in duplicate at a single concentration (10 uM for CYP450 assays and 25 uM for all others). […] Each assay was run with positive and negative controls, and concurrent controls on every plate. The follow-up (secondary) screen tested active chemical-pairs in concentration series, as well as a few additional assays not tested in the primary screen, some selected negative inactives, and several cases re-run in the concentration series for confirmatory purposes.", "values": [{"smiles": "O=c1[nH]c2ccccc2n1C1CCN(CCCC(c2ccc(F)cc2)c2ccc(F)cc2)CC1", "outcome": "inactive"}, {"smiles": "Nc1ccc(-c2ccc(N)c(Cl)c2)cc1Cl", "AC50": "inconclusive: 13.2 µM"}, {"smiles": "OCC1CO1", "note": "(stereo not given)", "AC50": "inconclusive: 25 µM"}, {"smiles": "CC(C)C1CCC(Cc2ccc(Cl)cc2)C1(O)Cn1cncn1", "note": "(stereo not given)", "outcome": "inactive"}, {"smiles": "ClC1=C(Cl)[C@]2(Cl)[C@@H]3[C@H]4C[C@H]([C@@H]5O[C@H]45)[C@@H]3[C@@]1(Cl)C2(Cl)Cl", "outcome": "inactive"}, {"smiles": "COC(=O)c1cc(Oc2ccc(Cl)cc2Cl)ccc1[N+](=O)[O-]", "AC50": "inconclusive: 0.0966 µM"}, {"smiles": "CCOc1cc(C(C)(C)C)ccc1C1COC(c2c(F)cccc2F)=N1", "note": "(stereo not given)", "AC50": "inconclusive: 25 µM"}, {"smiles": "N#CC(C#N)=NNc1cccc(Cl)c1", "AC50": "inconclusive: 44.4 µM"}, {"smiles": "CCN(CC)c1c([N+](=O)[O-])cc(C(F)(F)F)c(N)c1[N+](=O)[O-]", "outcome": "inactive"}, {"smiles": "COCCOCCO", "outcome": "inactive"}, {"smiles": "CCOC(=O)Nc1cccc(OC(=O)Nc2ccccc2)c1", "AC50": "inconclusive: 25 µM"}, {"smiles": "[Cl][Hg][c]1ccccc1", "AC50": "inconclusive: 0.183 µM"}, {"smiles": "CCOP(=S)(OCC)Oc1nc(Cl)n(C(C)C)n1", "AC50": "inconclusive: 0.607 µM"}, {"smiles": "Nc1ncc([N+](=O)[O-])s1", "AC50": "inconclusive: 25 µM"}, {"smiles": "CCCCOCC1CO1", "note": "(stereo not given)", "AC50": "inconclusive: 25 µM"}, {"smiles": "ClC1=C(Cl)C2(Cl)C3C(Cl)C(Cl)CC3C1(Cl)C2(Cl)Cl", "note": "(stereo not given)", "outcome": "inactive"}, {"smiles": "COP(=S)(OC)Oc1c(Cl)cc(C)cc1Cl", "AC50": "inconclusive: 4.04 µM"}, {"smiles": "CC(C)C1(C)N=C(c2ncccc2C(=O)O)NC1=O", "note": "(stereo not given)", "AC50": "inconclusive: 25 µM"}, {"smiles": "[F][Sn]([c]1ccccc1)([c]1ccccc1)[c]1ccccc1", "AC50": "inconclusive: 25 µM"}, {"smiles": "CNC(=O)CSP(=S)(OC)OC", "AC50": "inconclusive: 25 µM"}, {"smiles": "c1ccc2c(c1)Nc1ccccc1S2", "AC50": "inconclusive: 0.0628 µM"}, {"smiles": "Cc1cc(=O)[nH]o1", "AC50": "inconclusive: 0.103 µM"}, {"smiles": "CNC(=O)/C=C(\\C)OP(=O)(OC)OC", "AC50": "inconclusive: 0.828 µM"}, {"smiles": "CC(O)C(=O)[O][Hg][c]1ccccc1", "note": "(stereo not given)", "AC50": "inconclusive: 4.96 µM"}, {"smiles": "CCCCCCOC(=O)c1ccccc1C(=O)OCCCCCC", "AC50": "inconclusive: 0.293 µM"}, {"smiles": "COc1ccc(N)cc1N", "AC50": "inconclusive: 5.97 µM"}, {"smiles": "Oc1ccc(C2(c3ccc(O)cc3)c3ccccc3-c3ccccc32)cc1", "AC50": "active: 0.644 µM"}, {"smiles": "CCOC(=O)CC(SP(=S)(OC)OC)C(=O)OCC", "note": "(stereo not given)", "AC50": "inconclusive: 6.84 µM"}, {"smiles": "CC(C)(C1CCC(O)CC1)C1CCC(O)CC1", "note": "(stereo not given)", "AC50": "inconclusive: 0.177 µM"}, {"smiles": "Cc1c([N+](=O)[O-])cc2c(c1[N+](=O)[O-])C(C)(C)CC2(C)C", "AC50": "inconclusive: 0.0489 µM"}, {"smiles": "O=[N+]([O-])c1ccc2c3c(cccc13)CC2", "AC50": "inconclusive: 43 µM"}, {"smiles": "Cc1cc(O)ccc1Cl", "AC50": "active: 16.1 µM"}, {"smiles": "O=P(Oc1ccccc1)(Oc1ccccc1)Oc1ccccc1", "AC50": "inconclusive: 25 µM"}, {"smiles": "CNC(=O)O/N=C/C(C)(C)S(C)=O", "note": "(stereo not given)", "AC50": "inconclusive: 25 µM"}, {"smiles": "CC(=O)[O][Pb]([c]1ccccc1)([c]1ccccc1)[c]1ccccc1", "AC50": "active: 8.22 µM"}, {"smiles": "BrCCBr", "AC50": "inconclusive: 0.12 µM"}, {"smiles": "Cc1nnc(-c2ccccc2)c(=O)n1N", "AC50": "inconclusive: 7.52 µM"}, {"smiles": "c1csc(-c2ccc(-c3cccs3)s2)c1", "outcome": "inactive"}, {"smiles": "O=C(OC1CCCCC1)c1ccccc1C(=O)OC1CCCCC1", "AC50": "inconclusive: 26.1 µM"}, {"smiles": "O=c1n(Cl)c(=O)n(Cl)c(=O)n1Cl", "AC50": "inconclusive: 25 µM"}]}]}
